Source: PMC7193404
These are yes or no findings as the source states them, for the method shown. Some results given as binding are weak or reduced against the parent protein; the word gives no strength. For some of these results: Where a sequence is shown, tags or fusion partners need not be part of it.

The chains behind the UniProt entries cited, without tags or fusion partners. Residues count along the entry.
UniProt P11362, residues 22-376: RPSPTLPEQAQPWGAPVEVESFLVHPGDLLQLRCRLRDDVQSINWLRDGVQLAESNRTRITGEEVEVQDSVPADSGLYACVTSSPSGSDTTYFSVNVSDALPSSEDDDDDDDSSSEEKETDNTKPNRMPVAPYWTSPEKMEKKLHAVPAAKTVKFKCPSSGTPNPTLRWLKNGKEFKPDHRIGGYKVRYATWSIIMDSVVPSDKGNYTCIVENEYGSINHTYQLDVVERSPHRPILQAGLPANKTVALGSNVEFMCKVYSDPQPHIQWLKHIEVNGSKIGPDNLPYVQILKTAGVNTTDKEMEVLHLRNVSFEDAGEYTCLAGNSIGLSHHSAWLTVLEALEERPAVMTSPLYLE
UniProt P21802, residues 22-377: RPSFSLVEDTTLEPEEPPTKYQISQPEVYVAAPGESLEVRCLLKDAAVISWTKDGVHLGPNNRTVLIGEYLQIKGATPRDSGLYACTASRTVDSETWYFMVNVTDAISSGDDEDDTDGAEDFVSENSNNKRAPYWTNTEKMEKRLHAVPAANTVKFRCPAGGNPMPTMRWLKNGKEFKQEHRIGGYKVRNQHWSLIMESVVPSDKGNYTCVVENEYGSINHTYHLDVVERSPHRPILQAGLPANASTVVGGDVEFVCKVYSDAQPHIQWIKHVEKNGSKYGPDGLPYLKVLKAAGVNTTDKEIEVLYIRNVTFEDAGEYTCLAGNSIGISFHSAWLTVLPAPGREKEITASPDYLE
UniProt P22607, residues 23-375: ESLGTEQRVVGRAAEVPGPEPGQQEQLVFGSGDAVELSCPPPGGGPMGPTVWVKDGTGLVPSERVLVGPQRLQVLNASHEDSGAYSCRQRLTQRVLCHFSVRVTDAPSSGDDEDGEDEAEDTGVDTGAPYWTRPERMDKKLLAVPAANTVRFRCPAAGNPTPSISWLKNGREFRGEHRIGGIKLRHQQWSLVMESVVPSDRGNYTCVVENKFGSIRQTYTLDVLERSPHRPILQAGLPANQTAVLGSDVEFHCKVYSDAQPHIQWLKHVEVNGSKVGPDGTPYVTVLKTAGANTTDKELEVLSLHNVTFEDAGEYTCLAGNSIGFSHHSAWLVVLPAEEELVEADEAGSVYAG

How the values were obtained:
Experiment in all cases: SPR; Biacore 3000, 25 °C; FGFR-Fc amine-coupled at high density (about 9000 RU) on CM5; FHF1 3 uM injected at 30 ul/min; PBS, 0.05% Tween 20, 0.02% NaN3, pH 7.4; both purified
[1] = target: extracellular region of FGFR1 fused to the Fc fragment (UniProt P11362)
[2] = target: extracellular region of FGFR2 fused to the Fc fragment (UniProt P21802)
[3] = target: extracellular region of FGFR3 fused to the Fc fragment (UniProt P22607)
[4] = target: T1, extracellular region of FGFR4 fused to the Fc fragment (UniProt P22455)
T1 sequence: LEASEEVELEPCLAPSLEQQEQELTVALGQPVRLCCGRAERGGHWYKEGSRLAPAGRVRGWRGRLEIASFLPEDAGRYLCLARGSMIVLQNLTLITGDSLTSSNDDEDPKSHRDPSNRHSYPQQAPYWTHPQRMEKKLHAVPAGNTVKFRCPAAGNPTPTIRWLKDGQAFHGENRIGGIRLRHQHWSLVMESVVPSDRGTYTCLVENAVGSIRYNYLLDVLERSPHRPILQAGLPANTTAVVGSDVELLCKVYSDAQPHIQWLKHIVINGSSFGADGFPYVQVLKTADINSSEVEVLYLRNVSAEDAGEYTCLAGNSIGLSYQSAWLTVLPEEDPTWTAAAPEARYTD

Measured: binding

B1: fibroblast growth factor homologous factor 1, short isoform (FHF1b) (ligand, UniProt P61328-2 1-181)
chain: MESKEPQLKGIVTRLFSQQGYFLQMHPDGTIDGTKDENSDYTLFNLIPVGLRVVAIQGVKASLYVAMNGEGYLYSSDVFTPECKFKESVFENYYVIYSSTLYRQQESGRAWFLGLNKEGQIMKGNRVKKTKPSSHFVPKPIEVCMYREPSLHEIGEKQGRSRKSSGTPTMNGGKVVNQDST
binds: [1] | [2] | [3] | [4]
